Laboratory results from patent publication US6566327B1 (University of Ottawa, priority 1997, dated 2003).
Some peptides are written in HELM: one residue between dots, names in brackets for other building blocks, links after the first $. Square brackets hold non-standard residues; d marks the D form.

Assay: general procedure: Boc solid-phase peptide synthesis; chloromethylated copolystyrene-divinylbenzene 1% crosslinkage (0.75 mequiv. Cl/g) for linear peptides; oxime-resin (Nova); pre-formed symmetrical anhydrides of Boc-amino acids
Settings: whole synthesis

Row | Substance | isolated yield [%]
1 | cyclo(GQY[dR]) (SMILES N=C(N)NCCC[C@H]1NC(=O)[C@H](Cc2ccc(O)cc2)NC(=O)[C@H](CCC(N)=O)NC(=O)CNC1=O) | 5

Same assay, conditions: whole synthesis, HPLC; thin layer chromatography

Row | Substance | final HPLC purity
2 | H-GQAR-OH | 95%-98%
3 | H-GQGR-OH | 95%-98%
4 | H-RQGR-OH | 95%-98%
5 | PEPTIDE1{R.Q.A.R}$$$$V2.0 | 95%-98%
6 | PEPTIDE1{R.Q.A.R}$PEPTIDE1,PEPTIDE1,4:R2-1:R1$$$V2.0 | 95%-98%
7 | cyclo(ARGQ) (SMILES C[C@@H]1NC(=O)[C@H](CCC(N)=O)NC(=O)CNC(=O)[C@H](CCCNC(=N)N)NC1=O) | 95%-98%
8 | cyclo(ARGQARGQ) (SMILES C[C@@H]1NC(=O)[C@H](CCC(N)=O)NC(=O)CNC(=O)[C@H](CCCNC(=N)N)NC(=O)[C@H](C)NC(=O)[C@H](CCC(N)=O)NC(=O)CNC(=O)[C@H](CCCNC(=N)N)NC1=O) | 98%
9 | cyclo(ARRQARRQ) (SMILES C[C@@H]1NC(=O)[C@H](CCC(N)=O)NC(=O)[C@H](CCCNC(=N)N)NC(=O)[C@H](CCCNC(=N)N)NC(=O)[C@H](C)NC(=O)[C@H](CCC(N)=O)NC(=O)[C@H](CCCNC(=N)N)NC(=O)[C@H](CCCNC(=N)N)NC1=O) | 95%
10 | cyclo(GQYR) (SMILES N=C(N)NCCC[C@@H]1NC(=O)[C@H](Cc2ccc(O)cc2)NC(=O)[C@H](CCC(N)=O)NC(=O)CNC1=O) | 95%-98%

Same assay, conditions: whole synthesis, based on the starting Boc-amino acid resin

Row | Substance | isolated yield
11 | H-GQAR-OH | 20-25%
